In the supplement of paper PMC7877785:
± gives the uncertainty stated by the source. Many entries were measured with a wide error.

Assay: self-splicing fitness, log relative to wild type (ln ratio); higher = more splicing; Tetrahymena group I intron in knt gene, E. coli kanamycin selection, DiMSum; sequences stand for … in CUCUCU…GGAGGGAAAAGUUAUCAGGCAUGCACCUGGUAGCUAGUCUUUAAACCAAUAGAUUGCAUCGGUUUAAAAGGCAAGACCGUCAAAUUGCGGGAAAGGGGUCAACAGCCGUUCAGUACCAAGUCUCAGGGGAAACUUUGAGAUGGCCUUGCAAAGGGUAUGGUAAUAAGCUGACGGACAUGGUCCUAACCACGCAGCCAAGUCCUAAGUCAACAGAUCUUCUGUUGAUAUGGAUGCAGUUCACAGACUAAAUGUCGGUCGGGGAAGAUGUAUUCUUCUCAUAAGAUAUAGUCGGACCUCUCCUUAAUGGGAGCUAGCGGAUGAAGUGAUGCAACACUGGAGCCGCUGGGAACUAAUUUGUAUGCGAAAGUAUAUUGAUUAGUUUUGGAGUACUCGUGGUCG
Outline: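 DiMSum derived fitness as the error-weighted combination of fold changes across replicates, kanamycin versus no kanamycin, normalised to wild type. E. coli BL21(DE3) held the library, which randomised all eight P1ex-region intron nucleotides within the knt kanamycin-resistance gene on pET-22b(+). Six replicate transformations grew overnight at 37°C or 30°C on LB agar with or without 25 μg/mL kanamycin, also containing 100 μg/mL carbenicillin, 50 μM IPTG and 0.2% rhamnose, and pooled colonies were amplicon-sequenced on an Illumina HiSeq 2500.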

Sequence	self-splicing fitness (ln) (30 °C)	self-splicing fitness (ln) (37 °C)
GUGCAGCAAUAUUACGAGAA	-3.31 ± 0.74	
GGGAAGCAAUAUUACGAACC	-2.81 ± 1.1	
CGCUAGCAAUAUUACGCUGU	-4.48 ± 0.72	
GAUUAGCAAUAUUACGGGUG	-1.52 ± 0.097	-0.58 ± 0.12
CGCCAGCAAUAUUACGUCCC		-2.37 ± 0.49
CCGGAGCAAUAUUACGCACG	-3.96 ± 1	
UUUAAGCAAUAUUACGCUUA	-4.05 ± 0.72	
GAUGAGCAAUAUUACGUUAA		-2.78 ± 0.61
GUCGAGCAAUAUUACGCUCC	-2.72 ± 0.51	-0.64 ± 0.65
GACGAGCAAUAUUACGAAUC	-3.06 ± 0.79	
CGGAAGCAAUAUUACGUCCG		-2.3 ± 0.78
GCGGAGCAAUAUUACGCCCC	-2.25 ± 1.1	-2.16 ± 1.1
AAGGAGCAAUAUUACGUAUC	-4.66 ± 0.73	
CGACAGCAAUAUUACGGAUC		-2.64 ± 1.1
UCUAAGCAAUAUUACGAAAU		-3.95 ± 0.72
CGAGAGCAAUAUUACGUCAA	-3.22 ± 0.21	-2.4 ± 0.27
GCCUAGCAAUAUUACGCCGG	-3.68 ± 0.6	
CUGGAGCAAUAUUACGCCGC	-3.19 ± 1.2	

A few values from the entries so far.
Value for GUGCAGCAAUAUUACGAGAA under self-splicing fitness (ln) (30 °C): -3.31 ± 0.74
Value for GUCGAGCAAUAUUACGCUCC under self-splicing fitness (ln) (37 °C): -0.64 ± 0.65

Later entries

Sequence	self-splicing fitness (ln) (30 °C)	self-splicing fitness (ln) (37 °C)
AGCGAGCAAUAUUACGCCAC		-1.39 ± 0.87
CGGUAGCAAUAUUACGAAGC		-2.04 ± 0.65
CUGCAGCAAUAUUACGCACA	-2.82 ± 0.19	-1.48 ± 0.19
UAAGAGCAAUAUUACGGAAG		-2.85 ± 0.61
GAUAAGCAAUAUUACGUCAC	-4.49 ± 1	
UAGUAGCAAUAUUACGCUGC	-3.1 ± 0.65	-1.28 ± 0.51
UCCAAGCAAUAUUACGUUAC	-4.16 ± 0.26	-3.2 ± 0.32
UGGGAGCAAUAUUACGCAUU		-2.73 ± 0.61
AAGCAGCAAUAUUACGAAAU	-2.65 ± 0.11	-1.33 ± 0.12
CACGAGCAAUAUUACGACGC	-3.57 ± 0.63	-3.05 ± 0.74
CUGAAGCAAUAUUACGCGCU	-3.35 ± 0.29	-2.76 ± 0.74
AAGGAGCAAUAUUACGCCAC	-3.23 ± 1	-2.66 ± 0.76
GAGAAGCAAUAUUACGGCCC	-0.643 ± 0.56	-0.392 ± 0.68
ACGGAGCAAUAUUACGGAUC	-3.09 ± 0.17	-2.79 ± 0.26
UGUGAGCAAUAUUACGUUCC	-1.07 ± 0.52	-2.28 ± 0.78
GAAAAGCAAUAUUACGCACG	-0.543 ± 0.09	-0.904 ± 0.12
AAGCAGCAAUAUUACGCGGU	-3.08 ± 0.17	-2.55 ± 0.23
